This passage reports binding results from patent US20080025968A1.

These are yes or no findings as the source states them, for the method shown. In cells and extracts the contact can be indirect. Some binding calls cover weakened binding; strength is not graded here. Tags and fused reporters may be left off the sequences shown.

Assay [1] concerns the target T1, HIS-SIVA1 (human SIVA1 in pcDNA3.1-HIS) (human) (UniProt O15304).
T1 sequence: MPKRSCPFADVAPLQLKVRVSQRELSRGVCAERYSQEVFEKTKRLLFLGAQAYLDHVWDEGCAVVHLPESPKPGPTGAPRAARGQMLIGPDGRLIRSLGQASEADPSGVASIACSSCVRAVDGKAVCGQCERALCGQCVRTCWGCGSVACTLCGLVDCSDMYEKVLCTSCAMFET
The experiment in a line: co-immunoprecipitation from transfected HEK293 cells.

In assay [2] the target is T1, HIS-SIVA1 (human SIVA1 in pcDNA3.1-HIS) (human). The assay is described as follows: co-immunoprecipitation from transfected HEK293T cells.

B1: myc-aly NIK (human NIK with the G860R mutation corresponding to the mouse aly mutation) (enzyme)
chain: EQKLISEEDLMAVMEMACPGAPGSAVGQQKELPKPKEKTPPLGKKQSSVYKLEAVEKSPVFCGKWEILNDVITKGTAKEGSEAGPAAISIIAQAECENSQEFSPTFSERIFIAGSKQYSQSESLDQIPNNVAHATEGKMARVCWKGKRRSKARKKRKKKSSKSLAHAGVALAKPLPRTPEQESCTIPVQEDESPLGAPYVRNTPQFTKPLKEPGLGQLCFKQLGEGLRPALPRSELHKLISPLQCLNHVWKLHHPQDGGPLPLPTHPFPYSRLPHPFPFHPLQPWKPHPLESFLGKLACVDSQKPLPDPHLSKLACVDSPKPLPGPHLEPSCLSRGAHEKFSVEEYLVHALQGSVSSSQAHSLTSLAKTWAARGSRSREPSPKTEDNEGVLLTEKLKPVDYEYREEVHWATHQLRLGRGSFGEVHRMEDKQTGFQCAVKKVRLEVFRAEELMACAGLTSPRIVPLYGAVREGPWVNIFMELLEGGSLGQLVKEQGCLPEDRALYYLGQALEGLEYLHSRRILHGDVKADNVLLSSDGSHAALCDFGHAVCLQPDGLGKSLLTGDYIPGTETHMAPEVVLGRSCDAKVDVWSSCCMMLHMLNGCHPWTQFFRGPLCLKIASEPPPVREIPPSCAPLTAQAIQEGLRKEPIHRVSAAELGGKVNRALQQVGGLKSPWRGEYKEPRHPPPNQANYHQTLHAQPRELSPRAPGPRPAEETTGRAPKLQPPLPPEPPEPNKSPPLTLSKEESGMWEPLPLSSLEPAPARNPSSPERKATVPEQELQQLEIELFLNSLSQPFSLEEQEQILSCLSIDSLSLSDDSEKNPSKASQSSRDTLSSGVHSWSSQAEARSSSWNMVLARGRPTDTPSYFNRVKVQIQSLNGEHLHIREFHRVKVGDIATGISSQIPAAAFSLVTKDGQPVRYDMEVPDSGIDLQCTLAPDGSFAWSWRVKHGQLENRP
Turning to B1, the binding entry in assay [1] and in assay [2] was “binds” each time.
